In patent US10440955B2, “Methods comprising a biocidal polyamine” (Curza Global, LLC, priority 2013, dated 2019):

Test system: A. baumannii biofilms
Assay: EBEC, high number biofilms on PEEK membranes, 10^9 to 10^2 CFU/PEEK membrane in 24 hours
Assay type: cell-based, Acinetobacter baumannii
Conditions: against A. baumannii
Description: In addition to determining the MIC and the MBEC of polyamine compounds against planktonic bacteria and low number biofilms, our group wanted to determine the efficacy of polyamine compounds against high number biofilms. To do so, biofilms were grown on the surface of polyetheretherketone (PEEK) membranes using a membrane biofilm reactor. This reactor is similar to the CDC biofilm reactor, but rather than growing biofilms on coupon surfaces, the reactor was modified to hold PEEK membranes. In short, to grow biofilms within this system, 500 mL of brain heart infusion (BHI) broth were inoculated with 1 mL of a 0.5 McFarland. The reactor was placed on a hot plate set at 34° C. and the bacteria were grown under batch conditions for 24 hours. Following this protocol, biofilms typically grow to 10^9 CFU/PEEK membrane. […] A solution of 10% BHI was then flowed through the reactor at a rate of 6.94 mL/min for an additional 24 hours. PEEK membranes were then removed and placed into 2 mL of CAMHB that contained a desired concentration of polyamine compound or antibiotic. […]
In addition to determining the MIC and the MBEC of compounds against planktonic bacteria and low number biofilms, the efficacy of the compounds of the invention against high number biofilms is determined. […]

Compound | EBEC greater than the MIC (ratio)
polymyxin B [reference compound] | 1,000 ×
NCCCNCCCNCc1cc(CNCCCNCCCN)cc(-c2ccccc2)c1 [CZ-58, N^1,N^1′-([1,1′-biphenyl]-3,5-diylbis(methylene))bis(N^3-(3-ammoniopropyl)propane-1,3-diaminium) chloride] | ~13 ×
